Source: patent US20070072815A1, “Methods and kits to increase the efficiency of oligonucleotide-directed nucleic acid sequence alteration” (priority 2004, published 2007)
Some entries share one result that the patent states for a list of compounds.

Test system: DLD-1-1 cells
Assay: Cell viability / cell death by propidium iodide FACS
Settings: highest doses of HU or VP16, 24 hours prior to electroporation

NC(=O)NO [HU, hydroxyurea]
cells remaining viable: ≥ 80%
